Measurements from publication PMC12700831.
These are yes or no findings as the source states them, for the method shown. Binding can be weak; no strength is given.

Assays:
[1] = molecular target: T1, recombinant Tetrahymena thermophila Shulin (T. thermophila) (UniProt Q22YU3); assay: negative-stain EM; freshly isolated complexes of Shulin or DNAAF9 with Arl3-Q70L, 2% uranyl acetate, 2D class averages; ~18 Å 3D map of DNAAF9–Arl3; both purified
T1 sequence: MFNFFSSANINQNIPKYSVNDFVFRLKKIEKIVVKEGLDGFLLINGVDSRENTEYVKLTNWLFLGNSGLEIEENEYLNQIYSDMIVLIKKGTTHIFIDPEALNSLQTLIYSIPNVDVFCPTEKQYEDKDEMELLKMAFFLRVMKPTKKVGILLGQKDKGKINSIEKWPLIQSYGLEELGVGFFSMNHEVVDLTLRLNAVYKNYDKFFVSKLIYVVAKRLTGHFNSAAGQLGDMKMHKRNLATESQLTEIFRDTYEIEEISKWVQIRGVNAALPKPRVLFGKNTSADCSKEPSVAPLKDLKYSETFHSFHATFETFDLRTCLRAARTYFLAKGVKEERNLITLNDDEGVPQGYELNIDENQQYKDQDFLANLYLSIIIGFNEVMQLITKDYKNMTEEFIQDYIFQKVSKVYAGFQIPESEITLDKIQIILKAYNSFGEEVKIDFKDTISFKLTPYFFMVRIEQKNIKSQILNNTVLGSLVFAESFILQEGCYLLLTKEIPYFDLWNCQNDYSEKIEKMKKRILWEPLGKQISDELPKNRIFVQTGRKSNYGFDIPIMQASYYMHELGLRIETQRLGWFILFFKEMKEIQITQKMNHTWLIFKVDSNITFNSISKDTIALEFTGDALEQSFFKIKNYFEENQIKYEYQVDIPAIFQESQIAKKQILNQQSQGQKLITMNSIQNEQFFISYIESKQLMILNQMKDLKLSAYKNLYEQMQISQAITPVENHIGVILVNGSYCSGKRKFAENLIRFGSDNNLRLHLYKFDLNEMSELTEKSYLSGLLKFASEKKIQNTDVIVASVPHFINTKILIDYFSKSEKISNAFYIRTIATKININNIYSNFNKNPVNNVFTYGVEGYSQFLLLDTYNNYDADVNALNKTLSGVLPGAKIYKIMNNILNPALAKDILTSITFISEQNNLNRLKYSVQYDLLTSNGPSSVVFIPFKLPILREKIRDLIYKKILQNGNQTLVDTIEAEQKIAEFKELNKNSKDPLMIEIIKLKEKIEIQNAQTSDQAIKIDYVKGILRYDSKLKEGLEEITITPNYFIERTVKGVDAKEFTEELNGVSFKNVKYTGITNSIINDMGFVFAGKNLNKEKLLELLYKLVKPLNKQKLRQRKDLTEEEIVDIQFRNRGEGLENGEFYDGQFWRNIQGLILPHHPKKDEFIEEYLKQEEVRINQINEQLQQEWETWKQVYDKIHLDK

[2] = molecular target: T1, recombinant Tetrahymena thermophila Shulin (T. thermophila); assay: SEC; Shulin or DNAAF9 with fourfold molar excess of Arl3 or ARL3 variants, 30 min on ice, 1 mM GDP or 1 mM GTP, Superdex 200 increase 3.2/300; coelution by SDS–PAGE; both purified

- binding [1]: binds
- binding [2]: binds
Substance: Tetrahymena thermophila Arl3-Q70L (His tag, bacterial) (T. thermophila)
